{"source": "patent US8178551B2", "about": "(Green Cross Corporation, priority 2007, dated 2012)", "system": "MPTP-induced Parkinson's disease animal model", "assay": "MPTP-induced Parkinson's animal model, SNpc TH-immunoreactivity", "assay_type": "in vivo", "conditions": "C57BL6/J, 25 mg/kg p.o. vs (+)-3-HM 25 mg/kg i.p., 30 min before MPTP for the last 3 days", "note": "For at least one compound, name, drawing or mass did not settle the structure."}
{"compound": "CC(C)OC(=O)OCOc1ccc2c(c1)[C@]13CCCC[C@@H]1[C@H](C2)NCC3", "note": "[Example 2, (+)-Isopropyl(morphinan-3-yloxy)methyl carbonate]", "values": [{"measurement": "protection against MPTP-induced loss of dopamine neuron (TH-immunoreactive neurons throughout SNpc)", "result": "more protection against MPTP-induced loss of dopamine neuron than intraperitoneal injection of HM at same dose"}]}
